{"source": "patent US6156724A", "about": "(priority 1998, dated 2000)", "key": {"[1]": {"system": "concanavalin A-induced lymphoblasts (Con A splenocytes)", "assay": "Lymphoblast viability (LbV) assay", "settings": "therapeutic index"}, "[2]": {"system": "Balb/c splenocytes (resting lymphocytes)", "assay": "Lymphocyte viability (LcV) assay", "assay_type": "cell-based, murine", "settings": "therapeutic index", "procedure": "Forty two (42) didemnin compounds (see Table 1) were evaluated for cytotoxicity to one of the lymphocyte populations in the MLR (i.e., Balb/c splenocytes). The purpose of the lymphocyte viability assay (LcV) is to measure metabolic activity in lymphocytes after they have been exposed to the compounds for the duration of an under conditions equivalent to the MLR. The inverse of the data yields cytotoxicity information about the compounds on murine lymphocytes. The rationale of using resting cells, in this case unstimulated lymphocytes, to measure cytotoxicity has a strategic importance. In the MLR the heterogenous cell populations are predominantly resting cells when the assay begins.\nTest compounds were prepared in two sets as described above. Splenocytes were prepared as described previously from one murine strain (Balb/c), and a volume of 200 μL of the cell suspension was added to one set of test compounds and control wells.\nAssay plates were incubated as in the MLR and then pulsed overnight 75 μL per well MTT-thiazolyl blue solution (150 μg). The plates were decanted and the resulting insoluble formazan crystals were dissolved in 200 μL of isopropyl alcohol. Absorbance at 570 nm was measured.\nThe LcV data were calculated as a percentage of basal metabolic activity, or percent viability, relative to BALB/c control, and an LC50 value was interpolated for each test compound."}}, "note": "Where “and” joins values, the source holds several entries; their conditions need not be identical. Equal entries are not always repeated. Numbered stars: 1 amine (or outer) side, 2 acyl side, 3 side chain; on linkers, the order of the positions; unused ones are H or OH. Bridge positions count the residues as written; N and C are the ends. Square brackets hold non-standard residues; d marks the D form. Peptide text beside a SMILES is read from it. * marks the point of attachment. X1 = CC[C@H](C)[C@@H](N[*:1])[C@@H](O)CC(=O)O[C@H](C(=O)[C@H](C)C(=O)[*:2])C(C)C; X3 = CC[C@H](C)[C@H](N[*:1])[C@@H](O)CC(=O)O[C@H](C(=O)[C@H](C)C(=O)[*:2])C(C)C; X7 = CCC(C)C(N[*:1])C(O)CC(=O)OC(C(=O)C(C)C(=O)[*:2])C(C)C; NMeY = CN[CH](Cc1ccc(O)cc1)C(=O)O; Stearoyl = CCCCCCCCCCCCCCCCCC(=O)*; aThr = C[C@H](O)[C@H](N)C(=O)O; NMeL = CN[CH](CC(C)C)C(=O)O; dNMeL = CN[C@H](CC(C)C)C(=O)O; Lauroyl = CCCCCCCCCCCC(=O)*; Octanoyl = CCCCCCCC(=O)*; Pyruvoyl = CC(=O)C(=O)*; Hexanoyl = CCCCCC(=O)*; Pentanoyl = CCCCC(=O)*; Propionyl = CCC(=O)*; Butyryl = CCCC(=O)*; For = O=C*"}
{"compound": "CC[C@H](C)[C@H]1NC(=O)[C@@H](NC(=O)[C@@H](CC(C)C)N(C)C(C)=O)[C@@H](C)OC(=O)[C@H](Cc2ccc(OC)cc2)N(C)C(=O)[C@@H]2CCCN2C(=O)[C@H](CC(C)C)NC(=O)[C@@H](C)C(=O)[C@H](C(C)C)OC(=O)C[C@@H]1O", "note": "[Compound 18, N^α -Acetyldidemnin A] (Ac-[dNMeL]T[X1]LP[NMeY](Me); ester 2-C)", "values": [{"measurement": "ratio LbV (LC50)/MLR (IC50)", "setting": "[1]", "value": 14}, {"measurement": "ratio LcV (LC50)/MLR (IC50)", "setting": "[2]", "value": "> 370,000"}]}
{"compound": "CCC(=O)N(C)[C@H](CC(C)C)C(=O)N[C@@H]1C(=O)N[C@H]([C@@H](C)CC)[C@@H](O)CC(=O)O[C@@H](C(C)C)C(=O)[C@H](C)C(=O)N[C@@H](CC(C)C)C(=O)N2CCC[C@H]2C(=O)N(C)[C@@H](Cc2ccc(OC)cc2)C(=O)O[C@@H]1C", "note": "[Compound 19, N^α -Propionyldidemnin A] (Propionyl-[dNMeL]T[X1]LP[NMeY](Me); ester 2-C)", "values": [{"measurement": "ratio LbV (LC50)/MLR (IC50)", "setting": "[1]", "value": "< 1"}, {"measurement": "ratio LcV (LC50)/MLR (IC50)", "setting": "[2]", "value": 18.000}]}
{"compound": "CCCC(=O)N(C)C(CC(C)C)C(=O)NC1C(=O)NC(C(C)CC)C(O)CC(=O)OC(C(C)C)C(=O)C(C)C(=O)NC(CC(C)C)C(=O)N2CCCC2C(=O)N(C)C(Cc2ccc(OC)cc2)C(=O)OC1C", "note": "(stereo not drawn) [Compound 20, N^α -n-Butyryldidemnin A] (Butyryl-[NMeL]T[X7]LP[NMeY](Me); ester 2-C; configuration not given here)", "values": [{"measurement": "ratio LbV (LC50)/MLR (IC50)", "setting": "[1]", "value": "< 1"}, {"measurement": "ratio LcV (LC50)/MLR (IC50)", "setting": "[2]", "value": 300}]}
{"compound": "CCCCC(=O)N(C)[C@H](CC(C)C)C(=O)N[C@@H]1C(=O)N[C@H]([C@@H](C)CC)[C@@H](O)CC(=O)O[C@@H](C(C)C)C(=O)[C@H](C)C(=O)N[C@@H](CC(C)C)C(=O)N2CCC[C@H]2C(=O)N(C)[C@@H](Cc2ccc(OC)cc2)C(=O)O[C@@H]1C", "note": "[Compound 21, N^α -Pentanoyldidemnin A] (Pentanoyl-[dNMeL]T[X1]LP[NMeY](Me); ester 2-C)", "values": [{"measurement": "ratio LbV (LC50)/MLR (IC50)", "setting": "[1]", "value": "< 1"}, {"measurement": "ratio LcV (LC50)/MLR (IC50)", "setting": "[2]", "value": "20,000"}]}
{"compound": "CCCCCC(=O)N(C)[C@H](CC(C)C)C(=O)N[C@@H]1C(=O)N[C@H]([C@@H](C)CC)[C@@H](O)CC(=O)O[C@@H](C(C)C)C(=O)[C@H](C)C(=O)N[C@@H](CC(C)C)C(=O)N2CCC[C@H]2C(=O)N(C)[C@@H](Cc2ccc(OC)cc2)C(=O)O[C@@H]1C", "note": "[Compound 22, N^α -Hexanoyldidemnin A] (Hexanoyl-[dNMeL]T[X1]LP[NMeY](Me); ester 2-C)", "values": [{"measurement": "ratio LbV (LC50)/MLR (IC50)", "setting": "[1]", "value": 5}, {"measurement": "ratio LcV (LC50)/MLR (IC50)", "setting": "[2]", "value": "> 460,000"}]}
{"compound": "CCCCCCCC(=O)N(C)[C@H](CC(C)C)C(=O)N[C@@H]1C(=O)N[C@H]([C@@H](C)CC)[C@@H](O)CC(=O)O[C@@H](C(C)C)C(=O)[C@H](C)C(=O)N[C@@H](CC(C)C)C(=O)N2CCC[C@H]2C(=O)N(C)[C@@H](Cc2ccc(OC)cc2)C(=O)O[C@@H]1C", "note": "[Compound 23, N^α -Octanoyldidemnin A] (Octanoyl-[dNMeL]T[X1]LP[NMeY](Me); ester 2-C)", "values": [{"measurement": "ratio LbV (LC50)/MLR (IC50)", "setting": "[1]", "value": 4}, {"measurement": "ratio LcV (LC50)/MLR (IC50)", "setting": "[2]", "value": "1,800"}]}
{"compound": "CCCCCCCCCCCC(=O)N(C)[C@H](CC(C)C)C(=O)N[C@@H]1C(=O)N[C@H]([C@@H](C)CC)[C@@H](O)CC(=O)O[C@@H](C(C)C)C(=O)[C@H](C)C(=O)N[C@@H](CC(C)C)C(=O)N2CCC[C@H]2C(=O)N(C)[C@@H](Cc2ccc(OC)cc2)C(=O)O[C@@H]1C", "note": "[Compound 24, N^α -Dodecanoyldidemnin A] (Lauroyl-[dNMeL]T[X1]LP[NMeY](Me); ester 2-C)", "values": [{"measurement": "ratio LbV (LC50)/MLR (IC50)", "setting": "[1]", "value": 2}, {"measurement": "ratio LcV (LC50)/MLR (IC50)", "setting": "[2]", "value": "> 84"}]}
{"compound": "CCCCCCCCCCCCCCCCCC(=O)N(C)[C@H](CC(C)C)C(=O)N[C@@H]1C(=O)N[C@H]([C@@H](C)CC)[C@@H](O)CC(=O)O[C@@H](C(C)C)C(=O)[C@H](C)C(=O)N[C@@H](CC(C)C)C(=O)N2CCC[C@H]2C(=O)N(C)[C@@H](Cc2ccc(OC)cc2)C(=O)O[C@@H]1C", "note": "[Compound 25, N^α -Octadecanoyldidemnin A] (Stearoyl-[dNMeL]T[X1]LP[NMeY](Me); ester 2-C)", "values": [{"measurement": "ratio LbV (LC50)/MLR (IC50)", "setting": "[1]", "value": 1}, {"measurement": "ratio LcV (LC50)/MLR (IC50)", "setting": "[2]", "value": "> 2 and 2"}]}
{"compound": "CC[C@H](C)[C@@H]1NC(=O)[C@@H](NC(=O)[C@H](CC(C)C)N(C)C=O)[C@H](C)OC(=O)[C@H](Cc2ccc(OC)cc2)N(C)C(=O)[C@@H]2CCCN2C(=O)[C@H](CC(C)C)NC(=O)[C@@H](C)C(=O)[C@H](C(C)C)OC(=O)C[C@@H]1O", "note": "[Compound 26, Didemnin G] (For-[NMeL][aThr][X3]LP[NMeY](Me); ester 2-C)", "values": [{"measurement": "ratio LbV (LC50)/MLR (IC50)", "setting": "[1]", "value": 2}, {"measurement": "ratio LcV (LC50)/MLR (IC50)", "setting": "[2]", "value": "> 14,000"}]}
{"compound": "CC[C@H](C)[C@H]1NC(=O)[C@@H](NC(=O)[C@@H](CC(C)C)N(C)C(=O)[C@@H](N)CC(C)C)[C@@H](C)OC(=O)[C@H](Cc2ccc(OC)cc2)N(C)C(=O)[C@@H]2CCCN2C(=O)[C@H](CC(C)C)NC(=O)[C@@H](C)C(=O)[C@H](C(C)C)OC(=O)C[C@@H]1O", "note": "[Compound 27, N-(L-Leu)Didemnin A] (H-L[dNMeL]T[X1]LP[NMeY](Me); ester 3-C)", "values": [{"measurement": "ratio LbV (LC50)/MLR (IC50)", "setting": "[1]", "value": 5}, {"measurement": "ratio LcV (LC50)/MLR (IC50)", "setting": "[2]", "value": "> 13,000"}]}
{"compound": "CC[C@H](C)[C@H]1NC(=O)[C@@H](NC(=O)[C@@H](CC(C)C)N(C)C(=O)[C@@H]2CCCN2)[C@@H](C)OC(=O)[C@H](Cc2ccc(OC)cc2)N(C)C(=O)[C@@H]2CCCN2C(=O)[C@H](CC(C)C)NC(=O)[C@@H](C)C(=O)[C@H](C(C)C)OC(=O)C[C@@H]1O", "note": "[Compound 28, N^α -(L-Pro)Didemnin A] (H-P[dNMeL]T[X1]LP[NMeY](Me); ester 3-C)", "values": [{"measurement": "ratio LbV (LC50)/MLR (IC50)", "setting": "[1]", "value": 5}, {"measurement": "ratio LcV (LC50)/MLR (IC50)", "setting": "[2]", "value": "> 10,000"}]}
{"compound": "CC[C@H](C)[C@H]1NC(=O)[C@@H](NC(=O)[C@@H](CC(C)C)N(C)C(=O)[C@H]2CCCN2)[C@@H](C)OC(=O)[C@H](Cc2ccc(OC)cc2)N(C)C(=O)[C@@H]2CCCN2C(=O)[C@H](CC(C)C)NC(=O)[C@@H](C)C(=O)[C@H](C(C)C)OC(=O)C[C@@H]1O", "note": "[Compound 29, N^α -(D-Pro)-Didemnin A] (H-[dP][dNMeL]T[X1]LP[NMeY](Me); ester 3-C)", "values": [{"measurement": "ratio LbV (LC50)/MLR (IC50)", "setting": "[1]", "value": 2}, {"measurement": "ratio LcV (LC50)/MLR (IC50)", "setting": "[2]", "value": "> 8,000"}]}
{"compound": "CC[C@H](C)[C@H]1NC(=O)[C@@H](NC(=O)[C@@H](CC(C)C)N(C)C(=O)[C@@H]2CCCN2C(=O)C(C)=O)[C@@H](C)OC(=O)[C@H](Cc2ccc(OC)cc2)N(C)C(=O)[C@@H]2CCCN2C(=O)[C@H](CC(C)C)NC(=O)[C@@H](C)C(=O)[C@H](C(C)C)OC(=O)C[C@@H]1O", "note": "[Compound 30, dehydrodidemnin B] (Pyruvoyl-P[dNMeL]T[X1]LP[NMeY](Me); ester 3-C)", "values": [{"measurement": "ratio LbV (LC50)/MLR (IC50)", "setting": "[1]", "value": "< 1"}, {"measurement": "ratio LcV (LC50)/MLR (IC50)", "setting": "[2]", "value": "6,800"}]}
{"compound": "CC[C@H](C)[C@H]1NC(=O)[C@@H](NC(=O)[C@@H](CC(C)C)N(C)C(=O)[C@@H]2CCCN2C(C)=O)[C@@H](C)OC(=O)[C@H](Cc2ccc(OC)cc2)N(C)C(=O)[C@@H]2CCCN2C(=O)[C@H](CC(C)C)NC(=O)[C@@H](C)C(=O)[C@H](C(C)C)OC(=O)C[C@@H]1O", "note": "[Compound 31, [Acetyl^9]Didemnin B] (Ac-P[dNMeL]T[X1]LP[NMeY](Me); ester 3-C)", "values": [{"measurement": "ratio LbV (LC50)/MLR (IC50)", "setting": "[1]", "value": 1}, {"measurement": "ratio LcV (LC50)/MLR (IC50)", "setting": "[2]", "value": "14,000"}]}
